Here are results for 60 targets from the supplement of paper PMC6411743.

Sequences of proteins named here, by UniProt entry; tags and fusion partners are left off. A change or cut given only in a name is not applied to a line headed by its entry.
UniProt Q14011: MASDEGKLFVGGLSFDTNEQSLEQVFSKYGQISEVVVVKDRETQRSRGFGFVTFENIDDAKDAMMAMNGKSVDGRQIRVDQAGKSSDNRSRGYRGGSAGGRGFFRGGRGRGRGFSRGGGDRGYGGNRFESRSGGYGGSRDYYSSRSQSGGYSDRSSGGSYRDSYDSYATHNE
UniProt Q13561, whole entry: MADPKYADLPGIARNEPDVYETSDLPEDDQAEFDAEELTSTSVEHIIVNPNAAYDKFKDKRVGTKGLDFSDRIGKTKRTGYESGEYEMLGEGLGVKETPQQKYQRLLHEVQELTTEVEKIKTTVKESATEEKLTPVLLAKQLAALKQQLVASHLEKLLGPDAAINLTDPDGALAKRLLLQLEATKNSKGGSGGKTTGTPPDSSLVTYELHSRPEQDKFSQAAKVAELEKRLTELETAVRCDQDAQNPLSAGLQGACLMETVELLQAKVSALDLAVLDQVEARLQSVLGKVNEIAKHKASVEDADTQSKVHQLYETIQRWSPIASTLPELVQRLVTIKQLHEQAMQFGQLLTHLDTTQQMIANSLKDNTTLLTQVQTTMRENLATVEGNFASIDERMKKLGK
UniProt Q14683: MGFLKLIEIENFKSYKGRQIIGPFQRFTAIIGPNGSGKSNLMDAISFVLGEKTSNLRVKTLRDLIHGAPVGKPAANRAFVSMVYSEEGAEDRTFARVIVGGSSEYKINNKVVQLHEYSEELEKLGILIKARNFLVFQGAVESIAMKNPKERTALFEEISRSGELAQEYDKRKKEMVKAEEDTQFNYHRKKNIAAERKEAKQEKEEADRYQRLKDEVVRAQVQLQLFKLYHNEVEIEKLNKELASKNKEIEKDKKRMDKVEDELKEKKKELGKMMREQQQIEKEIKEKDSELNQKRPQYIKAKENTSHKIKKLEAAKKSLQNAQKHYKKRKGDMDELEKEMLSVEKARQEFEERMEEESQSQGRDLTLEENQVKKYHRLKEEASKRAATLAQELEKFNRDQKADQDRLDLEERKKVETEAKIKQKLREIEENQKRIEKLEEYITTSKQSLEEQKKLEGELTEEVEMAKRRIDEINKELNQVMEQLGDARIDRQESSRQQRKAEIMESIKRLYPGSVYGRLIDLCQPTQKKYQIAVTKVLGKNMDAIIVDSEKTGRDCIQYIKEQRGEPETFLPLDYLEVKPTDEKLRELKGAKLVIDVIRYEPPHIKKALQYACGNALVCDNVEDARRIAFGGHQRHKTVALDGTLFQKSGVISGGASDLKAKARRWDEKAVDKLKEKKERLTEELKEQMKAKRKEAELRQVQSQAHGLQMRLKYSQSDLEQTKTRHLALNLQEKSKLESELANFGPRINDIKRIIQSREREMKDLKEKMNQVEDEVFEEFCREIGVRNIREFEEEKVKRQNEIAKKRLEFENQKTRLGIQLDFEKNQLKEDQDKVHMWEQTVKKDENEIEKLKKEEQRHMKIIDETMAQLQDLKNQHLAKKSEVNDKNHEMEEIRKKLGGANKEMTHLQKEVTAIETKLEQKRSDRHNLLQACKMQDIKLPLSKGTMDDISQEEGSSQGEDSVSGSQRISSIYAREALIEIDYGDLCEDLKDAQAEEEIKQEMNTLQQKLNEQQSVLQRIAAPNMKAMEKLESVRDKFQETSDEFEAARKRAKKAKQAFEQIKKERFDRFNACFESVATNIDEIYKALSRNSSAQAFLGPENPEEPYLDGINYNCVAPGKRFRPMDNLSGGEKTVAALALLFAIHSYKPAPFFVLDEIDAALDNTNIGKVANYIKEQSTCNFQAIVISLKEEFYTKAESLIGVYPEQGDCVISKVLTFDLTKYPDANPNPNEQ
UniProt Q14019: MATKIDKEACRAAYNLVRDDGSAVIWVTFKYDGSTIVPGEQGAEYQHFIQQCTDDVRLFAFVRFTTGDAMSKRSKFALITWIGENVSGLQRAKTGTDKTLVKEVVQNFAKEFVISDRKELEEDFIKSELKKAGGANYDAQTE
UniProt Q13217: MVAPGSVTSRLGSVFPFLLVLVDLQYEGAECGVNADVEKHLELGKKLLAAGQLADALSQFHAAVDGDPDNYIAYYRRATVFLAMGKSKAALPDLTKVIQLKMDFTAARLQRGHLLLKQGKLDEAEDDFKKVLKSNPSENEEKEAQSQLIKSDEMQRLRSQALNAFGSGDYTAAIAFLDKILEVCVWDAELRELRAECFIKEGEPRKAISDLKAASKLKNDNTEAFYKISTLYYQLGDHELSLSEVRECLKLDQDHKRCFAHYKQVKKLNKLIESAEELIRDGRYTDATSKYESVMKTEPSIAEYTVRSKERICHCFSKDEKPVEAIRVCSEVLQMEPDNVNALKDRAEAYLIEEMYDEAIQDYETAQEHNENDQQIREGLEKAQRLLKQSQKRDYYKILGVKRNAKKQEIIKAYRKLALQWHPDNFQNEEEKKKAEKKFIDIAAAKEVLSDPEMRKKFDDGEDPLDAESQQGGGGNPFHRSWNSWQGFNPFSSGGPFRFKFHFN
UniProt Q13045: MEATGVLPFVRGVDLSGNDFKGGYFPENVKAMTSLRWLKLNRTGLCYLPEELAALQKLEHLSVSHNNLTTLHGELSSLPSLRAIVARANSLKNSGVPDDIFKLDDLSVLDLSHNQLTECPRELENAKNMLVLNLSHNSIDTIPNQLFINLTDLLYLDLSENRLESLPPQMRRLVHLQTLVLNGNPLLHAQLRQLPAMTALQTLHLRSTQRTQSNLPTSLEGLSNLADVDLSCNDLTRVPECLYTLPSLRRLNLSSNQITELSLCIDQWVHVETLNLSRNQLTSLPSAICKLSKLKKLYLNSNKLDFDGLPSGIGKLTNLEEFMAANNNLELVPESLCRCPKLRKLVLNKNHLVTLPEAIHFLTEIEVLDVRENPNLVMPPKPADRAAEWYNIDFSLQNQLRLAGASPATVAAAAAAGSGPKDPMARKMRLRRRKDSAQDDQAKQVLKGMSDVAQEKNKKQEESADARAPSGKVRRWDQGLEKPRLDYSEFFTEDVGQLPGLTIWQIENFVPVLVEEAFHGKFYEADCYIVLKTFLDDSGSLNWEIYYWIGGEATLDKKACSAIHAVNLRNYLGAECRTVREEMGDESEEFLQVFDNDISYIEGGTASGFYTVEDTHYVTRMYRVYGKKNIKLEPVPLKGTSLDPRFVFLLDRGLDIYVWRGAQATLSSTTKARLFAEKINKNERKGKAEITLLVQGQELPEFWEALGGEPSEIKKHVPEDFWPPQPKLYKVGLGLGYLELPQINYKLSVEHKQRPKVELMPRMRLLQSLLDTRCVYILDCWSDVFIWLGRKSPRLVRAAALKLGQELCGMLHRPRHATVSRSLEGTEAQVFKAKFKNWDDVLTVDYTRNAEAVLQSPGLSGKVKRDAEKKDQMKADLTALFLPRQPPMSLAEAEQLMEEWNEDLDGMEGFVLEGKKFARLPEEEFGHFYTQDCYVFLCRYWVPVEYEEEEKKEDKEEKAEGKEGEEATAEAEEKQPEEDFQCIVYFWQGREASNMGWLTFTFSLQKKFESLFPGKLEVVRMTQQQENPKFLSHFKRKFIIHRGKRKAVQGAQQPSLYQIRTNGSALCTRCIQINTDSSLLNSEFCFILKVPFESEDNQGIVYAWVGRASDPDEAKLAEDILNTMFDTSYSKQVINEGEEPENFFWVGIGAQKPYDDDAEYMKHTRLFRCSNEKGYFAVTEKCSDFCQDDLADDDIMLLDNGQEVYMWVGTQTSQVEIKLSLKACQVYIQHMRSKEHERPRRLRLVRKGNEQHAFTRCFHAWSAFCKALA
UniProt Q13362, whole entry, looked up: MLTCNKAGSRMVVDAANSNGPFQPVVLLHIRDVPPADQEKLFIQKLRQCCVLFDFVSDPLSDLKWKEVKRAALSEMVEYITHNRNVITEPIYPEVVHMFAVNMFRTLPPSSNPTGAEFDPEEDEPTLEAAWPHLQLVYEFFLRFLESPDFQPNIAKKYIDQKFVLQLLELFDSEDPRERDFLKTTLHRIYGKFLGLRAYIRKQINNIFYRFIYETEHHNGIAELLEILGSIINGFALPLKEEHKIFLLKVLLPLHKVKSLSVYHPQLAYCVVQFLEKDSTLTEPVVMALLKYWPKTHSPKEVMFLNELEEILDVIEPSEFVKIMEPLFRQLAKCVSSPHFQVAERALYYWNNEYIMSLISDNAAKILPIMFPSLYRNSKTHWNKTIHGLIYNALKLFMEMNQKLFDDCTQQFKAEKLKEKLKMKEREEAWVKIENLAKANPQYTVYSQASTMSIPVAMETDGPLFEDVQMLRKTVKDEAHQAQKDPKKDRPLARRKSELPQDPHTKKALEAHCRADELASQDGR
UniProt Q14139: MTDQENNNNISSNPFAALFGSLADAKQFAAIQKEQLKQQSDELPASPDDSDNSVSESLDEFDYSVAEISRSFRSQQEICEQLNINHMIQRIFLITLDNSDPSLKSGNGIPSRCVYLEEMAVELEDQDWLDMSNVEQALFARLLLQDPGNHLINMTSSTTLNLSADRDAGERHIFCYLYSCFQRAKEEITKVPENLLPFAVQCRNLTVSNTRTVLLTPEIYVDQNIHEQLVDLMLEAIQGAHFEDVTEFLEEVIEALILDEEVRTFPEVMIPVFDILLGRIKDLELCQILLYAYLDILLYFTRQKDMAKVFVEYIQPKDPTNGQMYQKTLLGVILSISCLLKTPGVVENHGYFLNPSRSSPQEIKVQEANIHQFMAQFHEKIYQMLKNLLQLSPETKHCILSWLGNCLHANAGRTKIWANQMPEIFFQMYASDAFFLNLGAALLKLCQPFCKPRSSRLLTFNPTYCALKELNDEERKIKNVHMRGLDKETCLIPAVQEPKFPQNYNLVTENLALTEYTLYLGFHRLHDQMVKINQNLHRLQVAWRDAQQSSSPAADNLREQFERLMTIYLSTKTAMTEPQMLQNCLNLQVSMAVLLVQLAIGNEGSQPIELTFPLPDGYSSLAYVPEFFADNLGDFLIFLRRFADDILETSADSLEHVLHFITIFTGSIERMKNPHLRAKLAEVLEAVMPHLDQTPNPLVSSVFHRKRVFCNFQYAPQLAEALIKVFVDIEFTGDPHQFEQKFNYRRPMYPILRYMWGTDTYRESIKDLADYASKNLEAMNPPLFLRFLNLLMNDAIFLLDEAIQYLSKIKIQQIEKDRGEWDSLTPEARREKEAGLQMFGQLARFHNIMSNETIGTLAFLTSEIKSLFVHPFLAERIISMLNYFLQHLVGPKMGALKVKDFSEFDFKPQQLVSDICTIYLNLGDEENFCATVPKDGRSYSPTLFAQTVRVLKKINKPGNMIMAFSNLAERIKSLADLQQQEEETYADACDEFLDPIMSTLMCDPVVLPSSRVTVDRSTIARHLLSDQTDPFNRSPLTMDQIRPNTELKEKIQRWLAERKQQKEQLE
UniProt Q15022: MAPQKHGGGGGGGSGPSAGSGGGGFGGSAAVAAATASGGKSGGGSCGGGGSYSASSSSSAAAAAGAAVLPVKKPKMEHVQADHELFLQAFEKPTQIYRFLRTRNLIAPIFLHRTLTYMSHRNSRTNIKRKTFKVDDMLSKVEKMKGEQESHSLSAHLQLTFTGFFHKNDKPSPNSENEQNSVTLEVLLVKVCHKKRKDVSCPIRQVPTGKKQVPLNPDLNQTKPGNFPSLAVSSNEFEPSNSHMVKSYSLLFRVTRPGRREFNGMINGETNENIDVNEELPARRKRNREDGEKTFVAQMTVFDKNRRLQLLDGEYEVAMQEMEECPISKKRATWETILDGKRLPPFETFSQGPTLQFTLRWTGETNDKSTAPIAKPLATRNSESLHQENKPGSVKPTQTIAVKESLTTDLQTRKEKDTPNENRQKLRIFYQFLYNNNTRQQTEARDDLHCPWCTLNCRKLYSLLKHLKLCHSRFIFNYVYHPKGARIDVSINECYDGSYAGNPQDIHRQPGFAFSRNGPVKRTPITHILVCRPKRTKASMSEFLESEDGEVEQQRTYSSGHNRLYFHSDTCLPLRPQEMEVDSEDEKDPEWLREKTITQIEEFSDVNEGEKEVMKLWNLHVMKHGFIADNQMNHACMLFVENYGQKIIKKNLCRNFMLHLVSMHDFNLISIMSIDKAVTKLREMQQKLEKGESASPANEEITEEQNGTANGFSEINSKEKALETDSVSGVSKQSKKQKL
UniProt Q12874: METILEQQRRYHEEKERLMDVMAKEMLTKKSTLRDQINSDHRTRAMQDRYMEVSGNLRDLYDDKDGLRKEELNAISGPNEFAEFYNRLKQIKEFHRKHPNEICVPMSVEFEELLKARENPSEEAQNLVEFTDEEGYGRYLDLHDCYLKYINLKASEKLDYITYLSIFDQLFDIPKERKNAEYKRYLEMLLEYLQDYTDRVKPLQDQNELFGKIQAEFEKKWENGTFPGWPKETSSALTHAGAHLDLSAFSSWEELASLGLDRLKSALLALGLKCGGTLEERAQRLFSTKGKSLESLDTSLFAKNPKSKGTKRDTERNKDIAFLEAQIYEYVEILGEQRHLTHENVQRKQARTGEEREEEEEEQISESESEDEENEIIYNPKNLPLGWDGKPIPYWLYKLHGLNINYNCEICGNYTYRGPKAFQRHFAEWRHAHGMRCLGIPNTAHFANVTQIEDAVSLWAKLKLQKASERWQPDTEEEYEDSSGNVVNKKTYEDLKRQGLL

± gives the standard deviation of the averaged measurements. This is a selection; strong and weak results do not stand in their true shares. Most entries show no effect beyond the scatter of the controls.

Compound in this experiment: Nc1ncnc2c1ncn2[C@@H]1O[C@H](COP(=O)(O)OP(=O)(O)NP(=O)(O)O)[C@@H](O)[C@H]1O [adenylyl imidodiphosphate]
Description: NP40-soluble protein abundance relative to vehicle (solubility fold change) (ratio); higher = more soluble protein in presence of AMP-PNP. In a few lines: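 In three independent experiments, Jurkat crude lysate made by Dounce homogenisation was treated for 10 min at room temperature and then 3 min at 37 °C with eight concentrations ranging from 0.1 to 10 mM. It was then solubilised with 0.8% NP40 plus benzonase for 60 min at 4 °C and ultracentrifuged. The supernatant was TMT-labelled for LC-MS/MS, and each value is the fold change against the detergent-processed vehicle for the same replicate, using vsn-normalised intensities.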

On to CIRBP (UniProt Q14011), for which the NP40-soluble protein abundance (concentration: 0.1mM) is 1.01 ± 0.027 and the NP40-soluble protein abundance (concentration: 0.5mM) was found to be 1.05 ± 0.076.
Take GALNT1 (UniProt Q10472): the NP40-soluble protein abundance (concentration: 0.1mM) stood at 0.991 ± 0.032 and the NP40-soluble protein abundance (concentration: 0.5mM) came to 0.971 ± 0.038.
For FADD (UniProt Q13158), in that order: 1.06 ± 0.033 and 1.08 ± 0.027.
For PSMD6 (UniProt Q15008), in that order: 1.01 ± 0.042 and 0.993 ± 0.048.
The like results for UniProt Q13057 and related entries were, in that order, 1.01 ± 0.024 and 0.9983 ± 0.0075.
Take UniProt Q13561 and related entries: the NP40-soluble protein abundance (concentration: 0.1mM) turned out to be 0.991 ± 0.053 and the NP40-soluble protein abundance (concentration: 0.5mM) was 1 ± 0.056.
Consider TARBP1 (UniProt Q13395), for which the NP40-soluble protein abundance came to 1.04 ± 0.051 (concentration: 0.1mM) and 1.01 ± 0.091 (concentration: 0.5mM).
For SMC1A (UniProt Q14683), in that order: 0.981 ± 0.049 and 1.02 ± 0.071.
The like results for SLC39A6 (UniProt Q13433) were, in that order, 1.01 ± 0.042 and 1.03 ± 0.039.
The like results for WDR43 (UniProt Q15061) were, in that order, 0.9962 ± 0.006 and 0.999 ± 0.019.
Turning to PDCL (UniProt Q13371), the NP40-soluble protein abundance by setting is: (concentration: 0.1mM) 1.04 ± 0.012; (concentration: 0.5mM) 0.993 ± 0.021.
The like results for COTL1 (UniProt Q14019) were, in that order, 0.957 ± 0.035 and 1.03 ± 0.053.
The like results for POLA2 (UniProt Q14181) were, in that order, 1 ± 0.04 and 1 ± 0.022.
The like results for UniProt Q15057 and related entries were, in that order, 1.011 ± 0.0098 and 0.995 ± 0.015.
Regarding UniProt Q12802 and related entries, the NP40-soluble protein abundance came out at 0.978 ± 0.035 (concentration: 0.1mM) and 0.989 ± 0.042 (concentration: 0.5mM).
For UniProt Q08J23 and related entries, the NP40-soluble protein abundance reads like this: (concentration: 0.1mM) 1 ± 0.012; (concentration: 0.5mM) 0.9938 ± 0.0082.
The like results for UniProt Q12981 and related entries were, in that order, 1 ± 0.032 and 0.999 ± 0.016.
As to KIF14 (UniProt Q15058), the NP40-soluble protein abundance is 1 ± 0.014 (concentration: 0.1mM) and 0.957 ± 0.01 (concentration: 0.5mM).
For TRIM28 (UniProt Q13263), in that order: 1.01 ± 0.014 and 1.01 ± 0.042.
With DNAJC3 (UniProt Q13217), the NP40-soluble protein abundance is, setting by setting: (concentration: 0.1mM) 0.974 ± 0.016; (concentration: 0.5mM) 0.984 ± 0.016.
The like results for UniProt Q13043 were, in that order, 0.997 ± 0.014 and 1.01 ± 0.037.
For the target RBL2 (UniProt Q08999), the NP40-soluble protein abundance is, setting by setting: (concentration: 0.1mM) 0.965 ± 0.016; (concentration: 0.5mM) 0.956 ± 0.026.
The like results for BYSL (UniProt Q13895) were, in that order, 1.02 ± 0.032 and 1.02 ± 0.011.
Regarding UniProt Q13505 and related entries, the NP40-soluble protein abundance (concentration: 0.1mM) was 1.02 ± 0.041 and the NP40-soluble protein abundance (concentration: 0.5mM) was 1.02 ± 0.068.
UniProt Q13045 and related entries: the NP40-soluble protein abundance reads like this: (concentration: 0.1mM) 1.04 ± 0.026; (concentration: 0.5mM) 1.02 ± 0.027.
For SNX1 (UniProt Q13596), in that order: 1 ± 0.016 and 1.04 ± 0.015.
With KPNB1 (UniProt Q14974), the NP40-soluble protein abundance by setting is: (concentration: 0.1mM) 1.01 ± 0.032; (concentration: 0.5mM) 1.01 ± 0.011.
Consider UniProt Q13422 and related entries, for which the NP40-soluble protein abundance (concentration: 0.1mM) came to 0.999 ± 0.039 and the NP40-soluble protein abundance (concentration: 0.5mM) was 1 ± 0.016.
For the target IDI1 (UniProt Q13907), the NP40-soluble protein abundance turned out to be 1.01 ± 0.018 (concentration: 0.1mM) and 1.01 ± 0.051 (concentration: 0.5mM).
In the case of NCBP1 (UniProt Q09161), the NP40-soluble protein abundance (concentration: 0.1mM) stood at 1.04 ± 0.028 and the NP40-soluble protein abundance (concentration: 0.5mM) worked out at 1.01 ± 0.021.
For KEAP1 (UniProt Q14145), in that order: 1.022 ± 0.0079 and 1.04 ± 0.024.
Take LAPTM5 (UniProt Q13571): the NP40-soluble protein abundance reads like this: (concentration: 0.1mM) 0.96 ± 0.036; (concentration: 0.5mM) 0.985 ± 0.026.
For UniProt Q13885, in that order: 0.98 ± 0.026 and 1.02 ± 0.062.
The like results for UniProt Q13242 were, in that order, 0.973 ± 0.034 and 1.05 ± 0.068.
For UniProt Q13362-2|Q13362-3|Q13362-4, the NP40-soluble protein abundance was 0.962 ± 0.027 (concentration: 0.1mM) and 0.973 ± 0.034 (concentration: 0.5mM).
The like results for ITPR3 (UniProt Q14573) were, in that order, 1.01 ± 0.043 and 0.973 ± 0.035.
For ITK (UniProt Q08881), in that order: 0.988 ± 0.013 and 0.957 ± 0.077.
The like results for UniProt Q14155-1|B1ALK7 were, in that order, 1.01 ± 0.012 and 0.997 ± 0.022.
Turning to UniProt Q14671 and related entries, the NP40-soluble protein abundance reads like this: (concentration: 0.1mM) 0.966 ± 0.019; (concentration: 0.5mM) 0.997 ± 0.038.
Consider NNT (UniProt Q13423), for which the NP40-soluble protein abundance (concentration: 0.1mM) is 0.9793 ± 0.0018 and the NP40-soluble protein abundance (concentration: 0.5mM) worked out at 1.001 ± 0.0048.
For UniProt Q14139 and related entries, in that order: 0.996 ± 0.017 and 0.979 ± 0.012.
For PAK2 (UniProt Q13177), in that order: 1 ± 0.018 and 1.007 ± 0.0037.
The like results for ERCC8 (UniProt Q13216) were, in that order, 1.02 ± 0.015 and 0.99 ± 0.024.
HDAC1 (UniProt Q13547): the NP40-soluble protein abundance is 0.966 ± 0.052 (concentration: 0.1mM) and 0.969 ± 0.03 (concentration: 0.5mM).
For MLLT11 (UniProt Q13015), in that order: 0.979 ± 0.03 and 0.982 ± 0.02.
For SNTB2 (UniProt Q13425), in that order: 1.04 ± 0.061 and 0.9802 ± 0.0086.
The like results for KRR1 (UniProt Q13601) were, in that order, 1.01 ± 0.033 and 1.035 ± 0.003.
On to UniProt Q15042, for which the NP40-soluble protein abundance is, setting by setting: (concentration: 0.1mM) 1 ± 0.027; (concentration: 0.5mM) 0.994 ± 0.015.
On to UniProt Q14004 and related entries, for which the NP40-soluble protein abundance is, setting by setting: (concentration: 0.1mM) 0.996 ± 0.03; (concentration: 0.5mM) 1.04 ± 0.03.
On to SUZ12 (UniProt Q15022), for which the NP40-soluble protein abundance is 1.01 ± 0.026 (concentration: 0.1mM) and 0.9696 ± 0.0066 (concentration: 0.5mM).
The like results for NCAPD2 (UniProt Q15021) were, in that order, 1.005 ± 0.0077 and 0.982 ± 0.022.
Turning to UniProt Q13469 and related entries, the NP40-soluble protein abundance runs as follows: (concentration: 0.1mM) 0.974 ± 0.016; (concentration: 0.5mM) 0.9877 ± 0.0079.
Take UniProt Q14498 and related entries: the NP40-soluble protein abundance by setting is: (concentration: 0.1mM) 1.01 ± 0.027; (concentration: 0.5mM) 1.02 ± 0.016.
For UniProt Q14790 and related entries, in that order: 0.984 ± 0.042 and 0.992 ± 0.025.
The like results for UniProt Q14696 were, in that order, 0.934 ± 0.023 and 0.987 ± 0.046.
For SF3A3 (UniProt Q12874), in that order: 0.981 ± 0.019 and 1.03 ± 0.03.
As to MORC3 (UniProt Q14149), the NP40-soluble protein abundance is, setting by setting: (concentration: 0.1mM) 0.99 ± 0.02; (concentration: 0.5mM) 1.01 ± 0.032.
For UniProt Q12904, in that order: 1.02 ± 0.082 and 1.03 ± 0.051.
DSG2 (UniProt Q14126): the NP40-soluble protein abundance reads like this: (concentration: 0.1mM) 0.976 ± 0.043; (concentration: 0.5mM) 0.974 ± 0.04.
For TARDBP (UniProt Q13148), in that order: 0.981 ± 0.032 and 1.01 ± 0.03.
